Measured values reported in US8114862B2, “TGR5 modulators and methods of use thereof” (Intercept Pharmaceuticals, Inc., priority 2008, dated 2012).
For at least one compound, name, drawing or mass did not settle the structure.

Assays:
ileal explants = test: GLP-1 release ex vivo from ileal explants; set-up: species or system mouse; conditions: ileal explants from TGR5-Tg and control mice
Protocol: . Pellicciari et al., 2007, J. Med. Chem. 50, 4265-4268). cAMP production was performed as described (Sato et al., 2008, J. Med. Chem. 51, 1831; Watanabe et al., 2006, Nature 439, 484). […] ATP/ADP ratio and GLP-1 release were measured according to the manufacturers' instructions (Biovision and Millipore, respectively). Primary brown adipocytes were prepared as previously described (Watanabe et al., 2006, Nature 439, 484), and ileal explants were prepared according to an established method (Cima et al., 2004, J. Exp. Med. 200, 1635-1646).
Plasma parameters and hepatic and fecal lipid content were measured as described (Mataki et al., 2007, Mol. Cell. Biol. 27, 8330-8339). Hematoxylin and eosin (H&E), Sirius red, and oil red 0 staining were performed as described (Mark al., 2007, Curr. Protoc. Mol. Biol. Chapter 29, Unit 29B, 24), and micrographs were taken on wide-field microscopes (Leica) with a CCD camera. For pancreatic sections, islets were sized and counted from four HE-stained alternated sections spaced of […] using ImageJ software (five animals per group). […] Insulin was extracted after O/N incubation at −20° C. in acid ethanol and measured by ELISA on PBS-diluted samples according to the manufacturer's instructions (Mercodia). GLP-1 release was measured in vitro, ex vivo, and in vivo according to methods known in the art.

[1] = Bile flow in bile fistula rat after femoral infusion (Example 22); assay type: in vivo; conditions: iv infusion 1 μmol/min/kg for 1 h

With `C[C@H](CCC(=O)O)[C@H]1CC[C@H]2[C@@H]3CC[C@@H]4C[C@H](O)CC[C@]4(C)[C@H]3CC[C@]12C` [LCA, lithocholic acid] the GLP-1 release (ileal explants) was “induce GLP-1 release in the context of high TGR5 expression”.

For `CC[C@H]1[C@@H](O)[C@@H]2[C@H](C[C@H](O)[C@]3(C)[C@@H]([C@H](C)C[C@@H](C)C(=O)O)CC[C@@H]23)[C@@]2(C)CC[C@@H](O)C[C@@H]12` [Ii3e, 6α-ethyl-(23R)-methyl-3α,7α,12α trihydroxy-5β-cholan-24-oic acid], the bile flow rate [1] was “also increased the bile flow rate but this effect is significantly lower”.
